This note sets out measurements from patent US20230210939A1 (priority 2020, published 2023).

The nature of the series: general procedure: Fmoc solid-phase peptide synthesis; Fmoc-Rink amide MBHA resin, 0.328 mmol/g; HBTU/HOBt/DIPEA. To be noted: for step yield: purification step; for final HPLC purity: UV 214 nm; for final HPLC purity / isolated yield: scale of the general procedure 3.1 g resin; for isolated yield: total yield.
The mark [1] stands for this setting: whole synthesis, trifluoroacetate.

“picolinyl-Ala-Ser-cyclo[Cys-LRKL-Aib-KRLL-Cys]-NH2” had a step yield (acetate) of 60.9%. This substance also had a step yield (trifluoroacetate) of 28.8%. Where the note is “whole synthesis, acetate”, the “final HPLC purity” value is given as 97.88% and the isolated yield came out at 11.7%. Further, under setting [1], the “final HPLC purity” value worked out at 98.5%, the isolated yield is on record as 19.2% and the isolated mass worked out at 575.0 mg.
